Our source for the AC50 values is PubChem BioAssay AID662 (National Center for Advancing Translational Sciences (NCATS), 2007).

Each structure is given as a SMILES string. This is one part of the list. Further columns of the screen follow, without active or inactive calls. Compounds called inactive in the main read-out are mostly missing here. Words in brackets tell the shape of the fitted curve; partial curves, single points and poor fits give uncertain potencies.

The test can be described thus: Cell signaling CRE-BLA (Fsk stim). Particulars: CHO CRE-bla reporter (cAMP response element driving beta-lactamase), forskolin EC10, beta-lactamase ratio; measured here: 460 nm blue channel. The essentials: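 Using CellSensor CRE-bla CHO cells in Opti-MEM with 0.5% dialyzed FBS, compounds were titrated with EC10 NKH 477 for 3 h at 37 °C. CCF4 ratio (460/530 nm) gave %Activity; AC50 derived.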
By AC50 is commonly meant the concentration giving half of the maximal activity seen. As to `CN1CCN(c2ncc3nc(-c4ccc(Cl)cc4)c(=O)n(Cc4cccs4)c3n2)CC1`, the AC50 was 1 µM [rising, full curve].
Then `CCc1c(C(=O)Nc2ccc(OC)cc2)[nH]c(C)c1C(C)=O`, with 2.51 µM [falling, single point]; and `CCC(C)(C(=O)NC1CCCCC1)N(C(=O)c1cnccn1)c1c(C)n(C)n(-c2ccccc2)c1=O` (configuration not stated), with 0.00631 µM [falling, full curve, poor fit]; and `COc1ccc(C2CC(=O)N3C(=C2C#N)SCC3(O)c2ccccc2)cc1` (configuration not stated), with 10 µM [rising, single point].
In the case of `CC(C)CCn1cnc2c(c1=O)c1nc3ccccc3nc1n2Cc1ccc2c(c1)OCO2`, the AC50 is 0.631 µM [rising, full curve, poor fit].
Regarding `OC(COCc1ccccc1)CN1CCN(c2ccccc2)CC1` (configuration not stated), the AC50 is 5.01 µM [falling, single point].
For the compound `C/C=C/Cn1c(Br)nc2c1c(=O)[nH]c(=O)n2C`, the AC50 is 20 µM [rising, single point].
For the compound `Cc1ccc(NC(=O)c2cc(-c3cccc(O)c3)on2)cc1C`, the AC50 was 12.6 µM [falling, single point].
On to `COc1ccc(OC)c(-c2[nH]nc3c2C(c2ccco2)C(C#N)=C(N)O3)c1` (configuration not stated), for which the AC50 was 5.01 µM [falling, partial curve].
Then `Cc1ccc(C)n1-c1ccc(-c2nnc3n2CCCCC3)s1`, with 5.01 µM [falling, single point]; and `CCOc1ccc2nc(SCc3ccc(C(=O)OC)o3)[nH]c2c1`, with 12.6 µM [rising, single point].
Then `CC(=NCc1ccco1)C1=C(O)c2ccccc2C1=O`, with 10 µM [rising, partial curve]; and `Cn1c(C(=O)NCCN2CCc3ccccc3C2)cc2c(=O)n(C)c3ccccc3c21`, with 5.01 µM [rising, partial curve]; and `COc1ccc(Nc2ncnc3c2cnn3Cc2ccccc2)cc1OC`, with 7.94 µM [rising, partial curve].
For the compound `COc1ccccc1N1CCN(C(CNS(=O)(=O)c2ccc(C)cc2)c2cccnc2)CC1` (configuration not stated), the AC50 was 1.26 µM [rising, partial curve].
Turning to `COc1cccc(OCC(=O)Nc2ccccc2NC(C)=O)c1`, the AC50 was 0.126 µM [falling, full curve].
Then `O=C(NCCc1nc2ccccc2[nH]1)c1ccco1`, with 5.01 µM [falling, single point].
For the compound `N#Cc1c(N)nc2c(c1-c1ccncc1)CCCCC2`, the AC50 is 10 µM [rising, partial curve].
Regarding `O=C1c2ccccc2S(=O)(=O)N1CC(O)Cn1c2ccccc2c2ccccc21` (configuration not stated), the AC50 is 12.6 µM [falling, single point].
Take `COc1ccc(C(=O)Nc2ccccc2C(=O)NCc2ccco2)cc1OC`: the AC50 is 10 µM [rising, single point].
With `O=C(CSc1ncccn1)NCCc1ccccc1`, the AC50 was 1.58 µM [falling, partial curve].
With `CCn1c(SCC(=O)Nc2ccc3c(c2)OCCO3)nnc1-c1ccccn1`, the AC50 is 3.16 µM [rising, partial curve].
Consider `COc1cccc(-n2nnc3c(=O)n(Cc4ccc(C)cc4)cnc32)c1`, for which the AC50 is 12.6 µM [rising, single point].
As for `CCNc1ccc(C(=O)OCC)cc1NC(=O)c1cccc(N(C)C)c1`, the AC50 is 12.6 µM [rising, single point].
For `CCOC(=O)CCCn1nc(C)n2c(cc3sccc32)c1=O`, the AC50 is 7.94 µM [rising, partial curve].
Consider `Cc1cc(C)n(-c2ccc(Cl)c(C(=O)Nc3ccc(-c4nnc5n4CCCCC5)cc3)n2)n1`, for which the AC50 was 10 µM [rising, single point].
Regarding `Cc1ccc(-c2nnc3n2N=C(c2ccccc2Br)CS3)cc1`, the AC50 was 10 µM [rising, partial curve].
Turning to `CC(C)CC(=O)NC1(C(F)(F)F)C(=O)Nc2c1c(=O)[nH]c(=O)n2Cc1ccco1` (configuration not stated), the AC50 is 12.6 µM [falling, single point].
On to `O=C(O)CCCC(=O)Nc1ccc(N2CCCC2)cc1`, for which the AC50 was 25.1 µM [rising, single point].
Regarding `O=c1c2ccccc2nc(SCc2cn3ccsc3n2)n1-c1ccc(F)cc1`, the AC50 is 2.51 µM [rising, full curve].
Regarding `CNC(=O)CSc1nnc(CCc2ccccc2)n1-c1ccccc1`, the AC50 was 0.0631 µM [rising, full curve].
Consider `Cc1nn(-c2cccc(Cl)c2)c2c1C(c1cccnc1)C(C#N)=C(N)O2` (configuration not stated), for which the AC50 is 12.6 µM [falling, single point].
Then `CS(=O)(=O)Nc1cccc(-c2ccc3ncnc(N4CCOCC4)c3c2)c1`, with 5.01 µM [rising, partial curve]; and `Cc1ccc(S(=O)(=O)c2nc(S(C)(=O)=O)sc2NCC2CCCO2)cc1` (configuration not stated), with 0.316 µM [rising, partial curve, poor fit]; and `CCOC(=O)c1c(NC(N)=O)sc(C)c1C`, with 12.6 µM [rising, partial curve].
As to `O=c1c(-c2cccc(Cl)c2)nc2cncnc2n1-c1ccccc1`, the AC50 is 10 µM [rising, partial curve].
Consider `COC(=O)c1c(C)n(-c2ccccc2)c2ccc(O)cc12`, for which the AC50 was 15.8 µM [rising, single point].
Regarding `CCOC(=O)N1CCN(S(=O)(=O)c2ccc(F)c(C(=O)Nc3cccc(C)c3C)c2)CC1`, the AC50 is 7.94 µM [rising, partial curve].
In the case of `Cc1onc(-c2ccccc2)c1C(=O)Nc1cc(C(F)(F)F)ccc1N1CCOCC1`, the AC50 was 12.6 µM [rising, single point].
In the case of `CC(NC(=O)COc1ccccc1)C(=O)NC1=NCCS1` (configuration not stated), the AC50 is 0.00316 µM [falling, full curve, poor fit].
Then `O=S(=O)(c1cccs1)N1CN(Cc2cccs2)c2nc3ccccc3nc21`, with 12.6 µM [rising, single point].
For the compound `COCCCN1CN(S(=O)(=O)c2ccc(Cl)cc2)c2nc3ccccc3nc21`, the AC50 was 10 µM [rising, single point].
Turning to `CCOc1ccccc1C1CC(=O)Nc2cc3c(cc21)OCCO3` (configuration not stated), the AC50 is 10 µM [rising, partial curve].
`COc1cc(NC(=O)Nc2ccccc2OC)c(OC)cc1NC(=O)CN1CCCCC1`: the AC50 is 12.6 µM [rising, partial curve].
For the compound `O=C1CCc2cc(S(=O)(=O)NCCC(=O)N3CCN(c4cccc(Cl)c4)CC3)ccc2N1`, the AC50 is 31.6 µM [falling, partial curve, poor fit].
As for `CN(C)c1ccc(/C=C/c2cc[n+]([O-])cc2)cc1`, the AC50 was 10 µM [rising, partial curve].
Turning to `CCOC(=O)c1cnc(SCc2ccc(C)cc2)nc1N`, the AC50 was 25.1 µM [rising, single point].
Then `COCCn1c(=O)c(-c2ccc(OC)cc2)nc2cnc(Nc3ccccc3)nc21`, with 0.501 µM [rising, full curve].
Take `COc1ccc(C)cc1NC(=O)CN(C)S(=O)(=O)c1cccs1`: the AC50 was 0.501 µM [falling, full curve, poor fit].
Consider `O=C(CN1CCN(C(=O)c2ccco2)CC1)Nc1ccc(Cl)c(C(F)(F)F)c1`, for which the AC50 was 5.01 µM [falling, partial curve].
Then `COC(=O)NC1CSCC1OC(=O)CCN1C(=O)c2ccccc2C1=O` (configuration not stated), with 0.00631 µM [falling, full curve, poor fit]; and `CCOc1cc(NC(=O)c2ccco2)c(OCC)cc1NC(=O)Cc1cccc(OC)c1`, with 12.6 µM [rising, partial curve]; and `CCOC(=O)c1cc2n(c1N)-c1ccccc1C2=O`, with 12.6 µM [rising, partial curve].
In the case of `N#Cc1c(NC(=O)c2cc(C3CC3)on2)sc2c1CCC2`, the AC50 was 15.8 µM [rising, partial curve].
For `COc1cccc(CNc2nn[nH]n2)c1OC`, the AC50 is 0.00398 µM [falling, full curve, poor fit].
Take `O=C(NCC(c1cccnc1)N1CCN(c2ccccc2F)CC1)C1CCCCC1` (configuration not stated): the AC50 is 0.01 µM [falling, full curve, poor fit].
For the compound `CCOC(=O)c1c(NC(=O)c2ccc(S(=O)(=O)N3CCOCC3)cc2)sc2c1CCN(C)C2`, the AC50 is 10 µM [rising, partial curve].
The result for `O=C(Nc1cccc2nsnc12)c1ccc2c(c1)OCCO2` reads 12.6 µM [rising, partial curve]; that for `CC(=O)Nc1ccc(NC(=O)C2CCCN(c3nnc(-n4cccc4)s3)C2)cc1` (configuration not stated), 20 µM [rising, single point].
Then `Nc1nc(COc2ccc3ccccc3c2)cs1`, with 0.00316 µM [rising, full curve, poor fit].
Turning to `O=C(NCc1ccccn1)C1CCCN(Cc2cnn(-c3ccccc3)c2-n2cccc2)C1` (configuration not stated), the AC50 is 5.01 µM [rising, partial curve, poor fit].
The result for `Cn1c(=O)c2cc(S(=O)(=O)NCCC(=O)NCC3CCCO3)ccc2n(C)c1=O` (configuration not stated) reads 0.2 µM [rising, full curve].
As to `O=C(Cn1c(=O)sc2ccccc21)Nc1ccc(S(=O)(=O)N2CCCC2)cc1`, the AC50 was 0.398 µM [falling, single point].
Then `Cc1ccc(-c2noc(CN(C(=O)c3cccc(Br)c3)C(C)C)n2)cc1`, with 12.6 µM [falling, partial curve]; and `COc1ccc(NC(=O)CSc2nnc(Cc3cccn3C)n2-c2ccc(C)cc2)cc1OC`, with 7.94 µM [falling, partial curve]; and `COc1ccc(-c2nc3cnc(N4CCNCC4)nc3n(C)c2=O)cc1`, with 5.01 µM [rising, partial curve].
`O=C(CCn1nc(-c2ccc(Cl)cc2)ccc1=O)NCCCN1CCCCCC1`: the AC50 is 25.1 µM [rising, single point].
